Experimental data: PubChem BioAssay AID1259254 (NCATS, 2017)

- Screen: 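Finding genes that stop cells copying their DNA twice in one cycle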 (primary screen)
- Cell system: human HCT116 colorectal cancer cells
- Reagents: single siRNA against human genes
- Duration: 3 days
- Detection: 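Imaged Hoechst DNA stain sorts each cell into a cycle phase by DNA amount; per plate, G2 fraction set to 0% for non-targeting and 100% for GMNN siRNA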
- Reading the numbers: G2 robust z-score: higher = more G2 cells, more excess DNA replication
- Call rule: 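Active siRNAs have a G2 robust z of 5 or more median absolute deviations over the median, which in these data means about 38% or higher of GMNN control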
Shown is an unselected part of about 59,000 reagents tested. About 1,550 of all reagents (2.6%) were called active. 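G2 share is only a proxy for re-replication; each gene was hit by three separate siRNAs, and active genes were retested.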 Reagents against one gene are numbered here. Further read-outs or replicates are left out here. The record does not give: the amount of reagent.

DGKZ #1: G2 robust z-score = -0.782; Outcome = inactive
DGKZ #2: G2 robust z-score = -0.706; Outcome = inactive
DGKZ #3: G2 robust z-score = 4.6; Outcome = inactive
CEP85 #1: G2 robust z-score = -0.523; Outcome = inactive
CEP85 #2: G2 robust z-score = -0.0303; Outcome = inactive
CEP85 #3: G2 robust z-score = 2.33; Outcome = inactive
PAMR1 #1: G2 robust z-score = 0.372; Outcome = inactive
PAMR1 #2: G2 robust z-score = 0.201; Outcome = inactive
PAMR1 #3: G2 robust z-score = 0.817; Outcome = inactive
NPEPL1 #1: G2 robust z-score = 0.755; Outcome = inactive
NPEPL1 #2: G2 robust z-score = -0.209; Outcome = inactive
NPEPL1 #3: G2 robust z-score = 0.194; Outcome = inactive
GMPR2 #1: G2 robust z-score = 0.645; Outcome = inactive
GMPR2 #2: G2 robust z-score = 0.24; Outcome = inactive
GMPR2 #3: G2 robust z-score = -0.844; Outcome = inactive
TNPO1 #1: G2 robust z-score = 0.709; Outcome = inactive
TNPO1 #2: G2 robust z-score = -0.341; Outcome = inactive
TNPO1 #3: G2 robust z-score = 0.474; Outcome = inactive
PABPN1L #1: G2 robust z-score = -0.489; Outcome = inactive
PABPN1L #2: G2 robust z-score = -0.329; Outcome = inactive
PABPN1L #3: G2 robust z-score = 0.353; Outcome = inactive
ZNF280D #1: G2 robust z-score = 2.65; Outcome = inactive
ZNF280D #2: G2 robust z-score = -0.904; Outcome = inactive
ZNF280D #3: G2 robust z-score = -0.57; Outcome = inactive

3 of these entries, reformatted:
{"target":"GMPR2","reagent":2,"G2 robust z-score":0.24,"Outcome":"inactive"}
{"target":"GMPR2","reagent":3,"G2 robust z-score":-0.844,"Outcome":"inactive"}
{"target":"TNPO1","reagent":1,"G2 robust z-score":0.709,"Outcome":"inactive"}
